# In all, about 340,000 compounds went through this assay and about 6,200 (1.8%) were called active. The inconclusive results got no clear call from the source; some entries with a clear call stand among them for comparison. The call rests on the fitted dose curve; in most records, active means well fitted activation curve with a large enough effect; inconclusive means small, poorly fitted or top-dose-only effect; inactive means no such curve, though single readings can be large or run the other way. Where the call is inconclusive, the potency comes from a doubtful curve fit.
# Assay: A quantitative high throughput screen for small molecules that induce DNA re-replication in SW480 colon adenocarcinoma cells. Further: nearly all actives have a fitted effect of over 55% in size. On re-replication activation: % of control where 0% means no effect.
# Conditions: Hoechst DNA content imaging, 48 h; re-replication activation: at 46.1 µM (top of the series) unless noted
# Procedure, shortened: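 SW480 cells exposed to compounds for 48 hr at 37 C, 5% CO2, then Hoechst-stained 40 min. Nuclear DNA content imaged by fluorescence scanning (405 nm excitation, 500-530 nm emission); re-replication scored as increased high-intensity nuclei.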
# Potency means the concentration at half of the fitted maximal effect.
Compound,Potency,re-replication activation
COC(=O)c1cn(C(=O)/C=C/c2ccc(OC)c(OC)c2)c2ccccc12,"inconclusive: 23.1 µM [activator, single point]",–
COc1ccc(-n2c(=O)c3c4c(sc3n(CC(=O)Nc3cc(C)[nH]n3)c2=O)CCC4)c(OC)c1,"inconclusive: 2.06 µM [activator, partial curve, poor fit]",–
CC(C)(C)c1csc(N/N=C/c2cccnc2)n1,–,inactive: -8.67%
Cn1c(SCC(=O)O)nnc1-c1cccc(NC(=O)c2cccc3ccccc23)c1,"inconclusive: 6.51 µM [activator, partial curve, poor fit]",–
CN(C)/C=C/c1c([N+](=O)[O-])c2ccc(O)cc2n1-c1ccccc1,"inconclusive: 32.6 µM [activator, partial curve, poor fit]",–
C/C(=C\C(=O)c1c(O)cc(C)oc1=O)N(C)C,–,inactive: -5.28%
CC(=O)NCc1ccc(C(=O)COC(=O)COc2ccccc2)s1,"inconclusive: 18.4 µM [activator, partial curve, poor fit]",–
CC(C)c1cccc(C(C)C)c1NC(=O)CN1C(=O)NC2(CCCC2)C1=O,–,inactive: 0.959%
Cc1ccc(NC(=O)CN(C)S(=O)(=O)c2cccc3cccnc23)c(C)c1,"inconclusive: 0.731 µM [activator, partial curve, poor fit]",–
CCn1cc(CCC(=O)NCc2cccc(OC)c2OC)c2ccccc21,–,inactive: 0.612%
Cc1ccccc1S(=O)(=O)NCC1CCCO1 (stereo not given),active: 25.9 µM,–
O=C(Cc1ccccc1)NNC(=O)C1CCCC1,"inconclusive: 1.16 µM [activator, single point]",–
CCCC(=O)Nc1nn(C)c2nc3c(C)cccc3cc12,"inconclusive: 1.84 µM [activator, partial curve]",–
Cc1cc(=O)oc2cc(OC(C)C(=O)NCC3CCC(C(=O)O)CC3)c(Cl)cc12 (stereo not given),–,inactive: 0.718%
CC1(C)Cc2c(sc(NC(=O)C(=O)N3CCCCC3)c2C(N)=O)CO1,–,inactive: 0.399%
O=C(Cn1cnc2c(nnn2Cc2ccc(F)cc2)c1=O)OCc1ccccc1,–,inactive: -5.59%
CCCS(=O)(=O)c1nc(S(=O)(=O)c2ccc(C)cc2)c(N2CCC(C)CC2)s1,"inconclusive: 6.51 µM [activator, single point]",–
Cc1ccc(S(=O)(=O)N(C)c2ccc(OCC(=O)Nc3cc(C(=O)O)ccc3Cl)cc2)cc1,–,inactive: 3.02%
CCc1cc(=O)oc2c(CNCc3ccc(OC)cc3OC)c(O)c(Cl)cc12,"inconclusive: 13 µM [activator, partial curve]",–
CC1CCCCN1C(=O)CCC(=O)Nc1nnc(C(F)(F)F)s1 (stereo not given),"inconclusive: 29.1 µM [activator, partial curve, poor fit]",–
CCn1c2ccccc2c2cc(NC(=O)CN(C)CC(=O)Nc3ccc(N4CCOCC4)cc3)ccc21,–,inactive: 3.53%
O=C(COCc1ccccc1)N[C@@H]1c2ccccc2CC[C@H]1OCc1ccccc1,"inconclusive: 1.46 µM [activator, full curve, poor fit]",–
COc1cc(NC(=O)NCC2CCN(Cc3ccccc3C)CC2)cc(OC)c1OC,–,inactive: -2.98%
Cc1ccc(S(=O)(=O)N(C)C)cc1NC(=S)N(CCC#N)Cc1cccnc1,–,inactive: -5.61%

Compound,Potency,re-replication activation
Cc1c(C(=O)N(C)Cc2ccc(OC(F)F)cc2)oc2ccccc12,–,inactive: -84.7%
Cc1cc(C)n(C(=O)CNC(=O)c2ccccc2F)n1,–,inactive: -0.916%
O=C(CCl)NNC(=O)c1c(O)c2ccccc2[nH]c1=O,"inconclusive: 25.9 µM [activator, single point]",–
CC(C)(C)N=C1NN=C(c2ccc(Cl)cc2)CS1,–,inactive: -1.81%
CC(=O)c1cccc(-n2nnnc2SCC(=O)Nc2ccccc2N2CCCCC2)c1,"inconclusive: 20.6 µM [activator, single point]",–
O=C(NC1CCCC(C(F)(F)F)C1)c1ccc([N+](=O)[O-])o1 (stereo not given),–,inactive: 31.8%
CC1(c2ccccc2)NC(=O)N(CC(=O)Nc2cc(C(F)(F)F)ccc2N2CCCCC2)C1=O (stereo not given),"inconclusive: 13 µM [activator, single point]",–
CNC(=S)NNC(=O)Cc1ccccc1,–,inactive: 1.8%
CCc1ccc(/C=N/NC(=O)c2ccc(OC3CCCC3)cc2)s1,"inconclusive: 29.1 µM [activator, partial curve, poor fit]",–
O=C1/C(=C/c2ccc(Br)cc2)Oc2cc(O)ccc21,"inconclusive: 25.9 µM [activator, single point]",–
O=C1c2ccc(Oc3cccc([N+](=O)[O-])c3)cc2C(=O)N1c1ccccn1,–,inactive: -13.3%
Fc1cccc(CNC2CCN(CCc3ccccc3)CC2)c1,"inconclusive: 11.6 µM [activator, single point]",–
COc1ccc(-c2cc(C(=O)N(C)CC(=O)Nc3ccccc3Br)c3ccccc3n2)cc1OC,–,inactive: -28.7%
CC(C)C(C)(C#N)NC(=O)CSc1nncn1-c1ccccc1 (stereo not given),"inconclusive: 14.6 µM [activator, single point]",–
COc1ccccc1NS(=O)(=O)c1cccc(C(=O)NNC(=O)c2ccc(Cl)nc2)c1,"inconclusive: 32.6 µM [activator, partial curve, poor fit]",–
C/C(N)=C(/C#N)C(=O)CSc1cc(C)c2cc(C)cc(C)c2n1,–,inactive: 4.94%
CCN(c1cccc(C)c1)S(=O)(=O)c1c(C)[nH]c(C)c1C(=O)N1CCCCC1,"inconclusive: 1.46 µM [activator, partial curve]",–
CCOC(=O)/C=c1/s/c(=C/c2ccc3cc(OC)ccc3c2)c(=O)n1CC(=O)NCc1ccc2c(c1)OCO2,"inconclusive: 4.11 µM [activator, single point]",–
COc1ccc(NC(=O)CCNC(=O)C2CCN(S(=O)(=O)c3ccc(OC)cc3)CC2)cc1,"inconclusive: 35.5 µM [activator, single point]",–
CCOc1ncccc1C(=O)Nc1cc2c(cc1Br)OCCO2,"inconclusive: 20.6 µM [activator, single point]",–
COc1ccc(C/C(C)=N/NC(=S)Nc2ccc(C)c(C)c2)cc1,"inconclusive: 0.146 µM [activator, full curve, poor fit]",–
COc1ccc(C(=O)NCCc2nc3cc([N+](=O)[O-])ccc3n2C)cc1,"inconclusive: 0.291 µM [activator, full curve, poor fit]",–
O=C(Nc1ccccc1-c1ccccc1)c1ccccc1,"inconclusive: 23.1 µM [activator, partial curve, poor fit]",–
COc1ccccc1CCC(=O)OCC(=O)c1c(N)n(CC(C)C)c(=O)n(C)c1=O,"inconclusive: 23.1 µM [activator, single point]",–

# Among those listed so far, four contain an aryl thioether with sulfur outside any ring.
Compound,Potency,re-replication activation
Cn1c(SCC(=O)O)nnc1-c1cccc(NC(=O)c2cccc3ccccc23)c1,"inconclusive: 6.51 µM [activator, partial curve, poor fit]",–
CC(=O)c1cccc(-n2nnnc2SCC(=O)Nc2ccccc2N2CCCCC2)c1,"inconclusive: 20.6 µM [activator, single point]",–
CC(C)C(C)(C#N)NC(=O)CSc1nncn1-c1ccccc1 (stereo not given),"inconclusive: 14.6 µM [activator, single point]",–
C/C(N)=C(/C#N)C(=O)CSc1cc(C)c2cc(C)cc(C)c2n1,–,inactive: 4.94%

# Continued:

Compound,Potency,re-replication activation
N#C/C(=C(/O)COC(=O)c1ccc2c(c1)OCCO2)c1nc2ccccc2[nH]1,"inconclusive: 23.1 µM [activator, partial curve, poor fit]",–
CC[C@]12c3[nH]c4ccccc4c3CCN1C(=O)C(CC(=O)NC/C=C(\C)CCC=C(C)C)C[C@@H]2C(=O)N1CCN(C(=O)C2CC2)CC1 (stereo not given in full),"inconclusive: 18.4 µM [activator, partial curve, poor fit]",–
CC(C)(C)OC(=O)N1CCC(c2c(C(=O)NCC3CCN(C4CCCC4)C3)cnn2-c2ccccc2)CC1 (stereo not given),"inconclusive: 20.6 µM [activator, single point]",–
CCOC(=O)C1CCC(=O)C1 (stereo not given),–,inactive: 1.04%
Cc1ccc(N2C(=O)Nc3ccccc3C2(O)C(=O)N2CCN(c3ccccn3)CC2)cc1C (stereo not given),"inconclusive: 6.51 µM [activator, single point]",–
CCOc1ncccc1C(=O)N(C)CC(=O)Nc1ccc(C)cc1,–,inactive: -1.35%
O=C(c1ccco1)N1CCN(c2ccc(N3CCCCC3)nn2)CC1,–,inactive: -2.97%
CN(CC/C=C1/c2ccccc2CSc2ccccc21)CCCO,"inconclusive: 13 µM [activator, partial curve, poor fit]",–
FC(F)(F)c1ccccc1NC(=S)NN=C1CCCCCC1,active: 11.6 µM,–
COCCn1c(C)c(C)c2c(NCCc3ccccc3)ncnc21,–,inactive: 15.1%
O=C(Nc1ccc(N2CCCC2)cc1)c1cc(Br)ccc1Cl,"inconclusive: 16.4 µM [activator, single point]",–
C/C=C/C=N/Nc1nc(-c2ccc([N+](=O)[O-])cc2)cs1,–,inactive: 2.19%
Cc1ccccc1NC(=O)CCC(=O)N/N=C/c1cc([N+](=O)[O-])ccc1O,"inconclusive: 23.1 µM [activator, single point]",–
c1cncc(CSc2ccc(-c3cccnc3)nn2)c1,"inconclusive: 6.51 µM [activator, single point]",–
O=[N+]([O-])c1ccc(N=Nc2c(O)[nH]c3ccc(F)cc23)cc1,"inconclusive: 29.1 µM [activator, single point]",–
Cc1ccc(S(=O)(=O)N2CCC(C(=O)NNC(=O)c3ccccc3O)CC2)cc1C,"inconclusive: 23.1 µM [activator, single point]",–
CC(C)NC1CCC(Nc2ccnc3cc(Cl)ccc23)CC1 (stereo not given),"inconclusive: 29.1 µM [activator, single point]",–
O=C1CCCCCN1Sc1ccccc1,"inconclusive: 23.1 µM [activator, single point]",–
O=C(COC(=O)Cc1ccc(F)cc1)NCc1ccco1,active: 11.6 µM,–
COc1cccc(-c2ccc3nnc(SCC(=O)N4CCCC4)n3n2)c1,"inconclusive: 7.31 µM [activator, single point]",–
Cc1ccccc1NC1=C/C(=N\S(=O)(=O)c2ccc(C(=O)O)cc2)c2ccccc2C1=O,"inconclusive: 18.4 µM [activator, partial curve, poor fit]",–
O=C(/C=C/c1ccccc1)CCN1CCOCC1,active: 8.2 µM,–

# Reference: PubChem BioAssay AID624297 (National Center for Advancing Translational Sciences (NCATS), 2012)
